From article doi:10.1101/2021.10.01.462734
Results are given in words; binding and its absence hold for the method and conditions named. Some binding calls cover weakened binding; strength is not graded here. Tags and fused reporters may be left off the sequences shown.

Legend:
[1] = molecular target: T1, GFP-labeled mouse glucocorticoid receptor, wild type (mouse), P06537; assay: number and brightness; conditions: remark: other sources report otherwise
T1 chain: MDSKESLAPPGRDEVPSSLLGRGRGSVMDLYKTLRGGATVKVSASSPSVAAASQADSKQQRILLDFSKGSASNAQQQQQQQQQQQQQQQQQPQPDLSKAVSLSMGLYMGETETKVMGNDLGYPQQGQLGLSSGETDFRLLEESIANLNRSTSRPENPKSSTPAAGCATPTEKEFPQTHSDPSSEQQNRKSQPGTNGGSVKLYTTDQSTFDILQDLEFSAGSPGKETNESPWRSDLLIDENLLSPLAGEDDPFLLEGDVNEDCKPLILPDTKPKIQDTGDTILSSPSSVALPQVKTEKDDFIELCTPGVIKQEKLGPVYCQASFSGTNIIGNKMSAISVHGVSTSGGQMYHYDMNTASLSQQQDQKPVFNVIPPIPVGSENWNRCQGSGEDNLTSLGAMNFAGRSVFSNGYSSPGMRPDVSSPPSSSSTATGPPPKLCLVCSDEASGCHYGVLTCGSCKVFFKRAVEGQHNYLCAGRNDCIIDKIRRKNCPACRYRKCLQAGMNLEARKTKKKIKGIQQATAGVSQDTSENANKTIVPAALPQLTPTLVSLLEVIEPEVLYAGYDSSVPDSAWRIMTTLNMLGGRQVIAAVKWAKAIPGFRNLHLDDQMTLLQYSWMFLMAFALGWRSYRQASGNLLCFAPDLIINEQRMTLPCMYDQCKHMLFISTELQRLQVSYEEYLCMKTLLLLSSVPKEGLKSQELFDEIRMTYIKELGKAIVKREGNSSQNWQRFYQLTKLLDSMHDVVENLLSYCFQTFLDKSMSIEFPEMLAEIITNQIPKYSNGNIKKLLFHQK

[2] = molecular target: T1, GFP-labeled mouse glucocorticoid …; assay: number and brightness; conditions: remark: other sources report otherwise

B1: GFP-labeled mouse glucocorticoid receptor, wild type, P06537 1-792 (protein)
chain: MDSKESLAPPGRDEVPSSLLGRGRGSVMDLYKTLRGGATVKVSASSPSVAAASQADSKQQRILLDFSKGSASNAQQQQQQQQQQQQQQQQQPQPDLSKAVSLSMGLYMGETETKVMGNDLGYPQQGQLGLSSGETDFRLLEESIANLNRSTSRPENPKSSTPAAGCATPTEKEFPQTHSDPSSEQQNRKSQPGTNGGSVKLYTTDQSTFDILQDLEFSAGSPGKETNESPWRSDLLIDENLLSPLAGEDDPFLLEGDVNEDCKPLILPDTKPKIQDTGDTILSSPSSVALPQVKTEKDDFIELCTPGVIKQEKLGPVYCQASFSGTNIIGNKMSAISVHGVSTSGGQMYHYDMNTASLSQQQDQKPVFNVIPPIPVGSENWNRCQGSGEDNLTSLGAMNFAGRSVFSNGYSSPGMRPDVSSPPSSSSTATGPPPKLCLVCSDEASGCHYGVLTCGSCKVFFKRAVEGQHNYLCAGRNDCIIDKIRRKNCPACRYRKCLQAGMNLEARKTKKKIKGIQQATAGVSQDTSENANKTIVPAALPQLTPTLVSLLEVIEPEVLYAGYDSSVPDSAWRIMTTLNMLGGRQVIAAVKWAKAIPGFRNLHLDDQMTLLQYSWMFLMAFALGWRSYRQASGNLLCFAPDLIINEQRMTLPCMYDQCKHMLFISTELQRLQVSYEEYLCMKTLLLLSSVPKEGLKSQELFDEIRMTYIKELGKAIVKREGNSSQNWQRFYQLTKLLDSMHDVVENLLSYCFQTFLDKSMSIEFPEMLAEIITNQIPKYSNGNIKKLLFHQK
[1]
  binding: binds
[2]
  binding: binds
